Data on 1 sequence can be found in publication PMC4851370, “The N-Terminus of the Floral Arabidopsis TGA Transcription Factor PERIANTHIA Mediates Redox-Sensitive DNA-Binding”.

For at least one entry, the source does not settle the construct or the ends of the probe. A weaker result is weaker than the reference pair of the same experiment. Where a protein sequence is shown, tags need not be part of it.

The data set concerns the target T1, PERIANTHIA (PAN) (Arabidopsis thaliana) (UniProt Q9SX27).
T1 sequence (looked up): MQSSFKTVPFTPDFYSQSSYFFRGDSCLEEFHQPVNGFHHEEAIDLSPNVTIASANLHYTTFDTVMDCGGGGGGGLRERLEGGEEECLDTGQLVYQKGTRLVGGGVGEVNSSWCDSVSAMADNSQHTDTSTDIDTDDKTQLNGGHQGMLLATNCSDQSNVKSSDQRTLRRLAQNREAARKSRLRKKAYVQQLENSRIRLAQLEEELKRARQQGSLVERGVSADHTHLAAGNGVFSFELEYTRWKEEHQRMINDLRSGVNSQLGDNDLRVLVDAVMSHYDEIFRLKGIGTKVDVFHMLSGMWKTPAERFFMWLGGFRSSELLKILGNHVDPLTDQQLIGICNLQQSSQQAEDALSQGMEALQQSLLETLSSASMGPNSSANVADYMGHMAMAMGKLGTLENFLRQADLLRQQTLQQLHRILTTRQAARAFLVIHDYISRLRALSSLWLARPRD
The experiment in a line: EMSA. As to conditions: shifted band, weaker than AAGAAT; with or without 0.9 or 20 mM DTT or 2 mM diamide, 30 min in the dark before probe addition; protein translated in vitro; residues 1-452; label: 5' 32P. On the technique in general: Mobility shift assays separate free from complexed probe on a gel.

As to “CTACGTCACTATTTTACTTACGTCATAG (double strand) [as-1-like]”, the binding result is reported as “binds more weakly”.
